Results published in US20210324061A1 (ARGENX BVBA, published 2021).
Numbering of substitutions follows the chain as printed. Numbers in names are those of the source. Results are given in words; binding and its absence hold for the method and conditions named. Some entries that bind do so weakly or less than the wild type. One block for each binder: values may come before it.

By UniProt entry, the sequences of proteins in these tests, tags left out. Where a name states a change or a piece, a line headed by the entry shows the natural chain unless it says otherwise.
UniProt Q14392: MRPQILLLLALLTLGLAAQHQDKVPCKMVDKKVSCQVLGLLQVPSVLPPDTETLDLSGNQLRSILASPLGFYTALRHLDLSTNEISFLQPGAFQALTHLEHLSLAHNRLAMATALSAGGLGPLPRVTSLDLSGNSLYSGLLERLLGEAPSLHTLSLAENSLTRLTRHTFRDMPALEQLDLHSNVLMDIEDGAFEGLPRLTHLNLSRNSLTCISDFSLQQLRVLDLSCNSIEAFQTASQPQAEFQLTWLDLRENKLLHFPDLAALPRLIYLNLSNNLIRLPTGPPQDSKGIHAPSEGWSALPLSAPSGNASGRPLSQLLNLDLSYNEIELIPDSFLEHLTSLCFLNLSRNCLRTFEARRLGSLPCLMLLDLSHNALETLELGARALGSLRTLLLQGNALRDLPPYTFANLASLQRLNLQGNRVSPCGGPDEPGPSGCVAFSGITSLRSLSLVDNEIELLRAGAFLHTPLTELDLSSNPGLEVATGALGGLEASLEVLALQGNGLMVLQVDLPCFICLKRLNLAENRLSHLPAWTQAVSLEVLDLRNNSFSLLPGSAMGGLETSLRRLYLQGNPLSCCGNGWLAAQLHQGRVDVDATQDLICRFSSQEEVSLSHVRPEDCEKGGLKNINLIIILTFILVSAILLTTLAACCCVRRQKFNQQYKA

Legend:
[1] = molecular target: human GARP-TGF-β1 complex (recombinant complex of human GARP and latent human TGF-β1) (human) (UniProt Q14392); experiment: SPR relative binding activity of samples stored at 37°C, % of the reference
[2] = molecular target: human GARP-TGF-β1 complex (recombinant complex of human GARP and latent human TGF-β1) (human) (UniProt Q14392); experiment: SPR, IgG1 on human GARP-TGF-β1 complex
[3] = molecular target: human GARP-TGF-β1 complex (recombinant complex of human GARP and latent human TGF-β1) (human) (UniProt Q14392); experiment: SPR (Biacore) target binding activity on the GARP-TGF-β complex, % of the -20°C reference, storage in PBS or PBSTw
[4] = molecular target: human GARP-TGF-β1 complex (recombinant complex of human GARP and latent human TGF-β1) (human) (UniProt Q14392); experiment: SPR (Biacore) target binding activity on coated human GARP-TGF-β complex after 96 h of rotation, % of the reference
[5] = molecular target: human GARP-TGF-β1 complex (recombinant complex of human GARP and latent human TGF-β1) (human) (UniProt Q14392); experiment: SPR (Biacore) target binding activity on coated human GARP-TGF-β complex after 1 h of heating, % of the 5°C reference
[6] = molecular target: human GARP-TGF-β1 complex (recombinant complex of human GARP and latent human TGF-β1) (human) (UniProt Q14392); experiment: SPR (Biacore) target binding activity on coated human GARP-TGF-β complex after 10 freeze-thaw cycles, % of the reference
[7] = molecular target: in vitro-formed complex of recombinant human GARP and recombinant latent TGF-β (C33S) (human) (UniProt Q14392); experiment: ELISA (legend of FIG. 19)
[8] = molecular target: human GARP-TGF-β1 complex (recombinant complex of human GARP and latent human TGF-β1) (human) (UniProt Q14392); experiment: conclusion of Example 2 (SPR)
[9] = molecular target: in vitro-formed complex of recombinant human GARP and recombinant latent TGF-β (C33S) (human) (UniProt Q14392); experiment: ELISA: ARGX-115 coated, GARP then latent TGF-β (C33S)-3×strep-tag added, streptavidin-HRP
[10] = molecular target: in vitro-formed complex of recombinant human GARP and recombinant latent TGF-β (C33S) (human) (UniProt Q14392); experiment: ELISA: GARP coated, latent TGF-β (C33S) captured, antibody at 1 µg/mL detected with HRP anti-human IgG
[11] = molecular target: in vitro-formed complex of recombinant human GARP and recombinant latent TGF-β (C33S) (human) (UniProt Q14392); experiment: ELISA in two orientations: GARP coated, latent TGF-β (C33S) captured, antibody detected with anti-human IgG-HRP; or antibody coated, GARP then latent TGF-β (C33S)-3xstrep-tag added, detected with streptavidin-HRP

binding [1]: binds
B1: 39B6-A IgG4 S228P (antibody, V domains shown)
VH: QVQLVQPGAEVRKPGASVKVSCKASGYRFTSYYIDWVRQAPGQGLEWMGRIDPEDAGTKYAQKFQGRVTMTADTSTSTVYVELSSLRSEDTAVYYCARNEWETVVVGDLMYEYEYWGQGTLVTVSS
VL: DIQMTQSPSSLSASVGDRVTITCQASQSISSYLAWYQQKPGQAPKILIYGASRLKTGVPSRFSGSGSGTSFTLTISSLEPEDAATYYCQQYASVPVTFGQGTKVEIKR
notes: 39B6 with G55A in HCDR2, in the human IgG4 S228P backbone; also called 39B6-ANE

binding [2]: binds
B2: 39B6 human IgG1 (antibody, V domains shown)
VH: B1 VH with A56G
VL: DIQMTQSPSSLSASVGDRVTITCQASQSISSYLAWYQQKPGQAPKILIYGASRLKTGVPSRFSGSGSGTSFTLTISSLEPEDAATYYCQQYASVPVTFGQGTKVEIK
notes: Full human IgG1, made in HEK 293E cells

binding [3]: binds
B3: 39B6 IgG1-N297Q (antibody, V domains shown)
VH: B1 VH with A56G
VL: B2 VL
notes: Effector-deficient format hIgG1 N297Q; The second row may be the IgG4 S228P form; Both rows are written here as printed

binding [2]: binds
B4: 38F2 human IgG1 (antibody, V domains shown)
VH: B1 VH with V11L, R12K, M70F, M110T
VL: DIQMTQSPSSLSASVGDRVTITCQASQSISSYLAWYQQKPGKAPNLLIYGASRLKTEVPSRFSGSGSGTDFTLISGLEPEDAGTYYCQQYASVPVTFGQGTKVEIK
notes: as for B2

binding [2]: binds
B5: 39B10 human IgG1 (antibody, V domains shown)
VH: B1 VH with Q1E, P7S, V11L, R12K, D55E, A56G, V79A, V81M
VL: B2 VL with V15L, K45N, S70D, S77G, P80A, A83F
notes: as for B2

binding [1]: binds
binding [4]: binds
binding [5]: binds
binding [6]: binds
B6: 39B6-AVE IgG4 S228P (antibody, V domains shown)
VH: B1 VH with N99V
VL: B1 VL
notes: Variant of 39B6-A in IgG4 S228P format; Positions are Kabat-type

binding [2]: binds
B7: 39A12 human IgG1 (antibody, V domains shown)
VH: B1 VH with Q1E, R12K, D55E, A56G, M70F, M110T
VL: B2 VL with S70D, E79Q, P80A, A83F
notes: Full human IgG1, made in HEK 293E cells; also called 39A12_T

binding [1]: binds
binding [5]: binds
B8: 39B6-ANK IgG4 S228P (antibody, V domains shown)
VH: B1 VH with E100K
VL: B1 VL
notes: as for B6

binding [1]: binds
binding [5]: binds
B9: 39B6-ANR IgG4 S228P (antibody, V domains shown)
VH: B1 VH with E100R
VL: B1 VL
notes: as for B6

binding [7]: binds
binding [8]: binds
binding [1]: binds
binding [9]: binds
binding [10]: binds
binding [4]: binds
binding [5]: binds
binding [6]: binds
binding [11]: binds
B10: 39B6-AYE (ARGX-115), IgG4 S228P (antibody, V domains shown)
VH: B1 VH with N99Y
VL: B1 VL

binding [2]: binds
B11: 39A5 human IgG1 (antibody, V domains shown)
VH: QVQLVQPGAELRNPGASVKVSCKASGYRFTSYYIDWVRQAPGQGLEWMGRIDPEDGGTKYAQKFQGRVTFTRDTSTSTVYMELSSLRSEDTAVYYCARNEWETVVVGDLMYEYEYWGQGTLVT
VL: B2 VL with V15L, I46L, S70D, E79Q
notes: as for B2
